# Results deposited as PubChem BioAssay AID1671195 (Yale University, 2021)
# Aim: 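Knockdowns that increase or decrease uptake of fluorescent LDL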 (primary screen)
# Cells: human Huh7 hepatoma cells
# Knock-down reagent: siRNA pool against human genes, 18 nM
# Time to read-out: about 2 to 2.5 days of knockdown, then 8 h LDL uptake
# Treatment: DiI-labelled LDL at 30 µg/ml for 8 h, in lipoprotein-deficient serum medium
# Read-out: 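Fluorescent LDL signal imaged in cells, scaled to the plate median, robust z-score for each replicate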
# Direction: robust z-score: higher = more LDL uptake after knockdown
# Hit rule: 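a gene counts as active if at least two replicate z-scores exceed ±2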
# Here is an unselected part of about 22,000 reagents tested. About 1,510 of them (6.9%) count as active. 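Active includes knockdowns raising or lowering LDL uptake; positive z-scores mean more uptake, negative mean less.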 A number with no mark means an inactive call. The numbers tell different reagents against one gene apart.
gene,pool no.,"robust z-score, replicate 1","robust z-score, replicate 2","robust z-score, replicate 3"
DNAH8,1,1.1,1.32,0.804
LOC387939 (retired record),1,0.181,0.0423,-0.305
EHBP1,1,-0.518,-0.75,-0.91
ZC3H15,1,-0.398,-0.328,-0.409
PPP1R1A,1,-0.127,-0.591,-0.0764
MYBPC1,1,1.56,1.55,2.51
LINC01446,1,-0.0268,-0.241,-0.796
JMJD1C,1,0.133,0.095,0.0601
RBM45,1,0.417,0.254,-0.129
LOC442015 (retired record),1,1.29,1.51,1.44
CLEC1A,1,-1.66,-1.41,-0.958
EIF4A2P4,1,-0.87,-0.948,-1.02
NPFF,1,0.266,2.86,1.04
CERT1,1,0.485,0.0732,0.477
SFMBT1,1,2.09,1.79,-1.34
ELOVL5,1,0.341,-0.523,-0.539
DLGAP4,1,-0.252,-0.733,-0.486
ARNT2,1,-0.105,-0.0555,-0.0512
GALNT14,1,0.0334,0.439,-0.119
ANKRD36,1,0.913,1.06,0.665
LOC440392 (retired record),1,-0.267,-0.466,-0.68
DEFB123,1,-0.502,-0.544,-0.334
ZCCHC2,1,0.346,-0.00894,-0.00849
ZCCHC2,2,0.901,0.321,-1.91
KLK3,1,0.446,0.63,0.597
LOC442427,1,0.319,0.628,0.472
LOC390570 (retired record),1,0.836,1.52,0.629
RDH10,1,0.721,0.336,0.595
STUB1,1,1.81,1.67,1.59
LMO3,1,-1.63,-1.27,-1.48
LOC401891 (retired record),1,-0.19,0.44,0.584
SIM1,1,-0.439,0.0209,0.197
KRTAP22-1,1,-0.0244,-0.1,-0.117
INMT,1,0.274,-0.709,-0.65
CANX,1,-0.152,0.0387,-0.0678
ATP6V1D,1,0.157,-0.404,-0.181
LOC387950 (retired record),1,0.573,0.679,0.707
SCTR,1,0.869,0.82,1.28
SMIM7,1,0.528,-0.659,0.0663
ELF4,1,-0.143,0.523,0.0994
OOEP,1,0.614,0.503,0.486
CREB3L1,1,-0.48,-0.732,0.0734
ROS1,1,0.355,-0.774,-1.07
LOC440389 (retired record),1,0.685,0.845,0.519
TAAR1,1,-1.11,-1.65,-1.41
CUL4B,1,0.401,1.57,0.329
DARS2,1,-0.0217,-0.137,0.036
RXRB,1,-0.442,-1.29,-1.72
SAV1,1,-0.238,1.85,0.983
NADK2,1,-0.716,-1.6,-0.692
LINC02903,1,0.118,0.531,-0.557
CLCC1,1,-0.234,0.607,-0.38
PLLP,1,-0.00648,1.19,0.254
LRRC18,1,-1.63,-1.48,-1.28
ACAT2,1,1.63,2.18,0.876
SHMT1,1,0.568,1.67,2.36
RPE,1,-0.162,-0.171,-0.204
SLC18A1,1,-0.861,-0.676,-0.75
NRSN2,1,0.386,-0.235,-0.126
NAA38,1,1.1,1.4,1.54
LOC401056 (retired record),1,-0.0728,0.122,-0.0749
CAVIN4,1,0.125,0.181,-0.592
SETD1A,1,0.566,0.965,-1.36
MAP3K1,1,-2.34 (active),-1.68,-2
ITGB3BP,1,-1.32,-0.962,-1.07
OR10G3,1,4.22,-0.393,1.15
LOC441618 (retired record),1,-0.836,-0.928,-0.714
METTL17,1,0.0493,0.78,-0.0169
LOC400669 (retired record),1,-1.6,-1.73,-1.61
BRK1,1,0.871,0.471,3.99
IL20,1,-0.46,0.715,-0.761
FLJ34223 (retired record),1,1.46,1.14,1.3
KPNA4,1,0.645,0.169,0.547
TSR2,1,0.0067,0.0388,0.666
ANKUB1,1,1.56,1.01,0.963
ANKUB1,2,0.637,-0.109,-0.0171
OBSCN-AS1,1,1.24,1.57,1.4
LOC440454 (retired record),1,-0.392,-1.15,-0.765
LOC440549 (retired record),1,1.24,0.889,0.546
TENM2,1,-0.821,0.405,-0.145
PPP1R14B,1,0.267,0.442,0.17
FBXO11,1,-0.021,-0.0182,0.527
ERCC6,1,-1.51,-1.33,-1.38
NAT1,1,-0.772,-0.261,0.445
TRPV4,1,3.47 (active),3.87,2.47
TBC1D3F,1,0.441,0.52,0.0668
CFC1,1,0.702,2.08,-0.387

In a second layout: entries from further up.
LINC02903
- robust z-score, replicate 1: 0.118
- robust z-score, replicate 2: 0.531
- robust z-score, replicate 3: -0.557

CLCC1
- robust z-score, replicate 1: -0.234
- robust z-score, replicate 2: 0.607
- robust z-score, replicate 3: -0.38

PLLP
- robust z-score, replicate 1: -0.00648
- robust z-score, replicate 2: 1.19
- robust z-score, replicate 3: 0.254

LRRC18
- robust z-score, replicate 1: -1.63
- robust z-score, replicate 2: -1.48
- robust z-score, replicate 3: -1.28

ACAT2
- robust z-score, replicate 1: 1.63
- robust z-score, replicate 2: 2.18
- robust z-score, replicate 3: 0.876

SHMT1
- robust z-score, replicate 1: 0.568
- robust z-score, replicate 2: 1.67
- robust z-score, replicate 3: 2.36

RPE
- robust z-score, replicate 1: -0.162
- robust z-score, replicate 2: -0.171
- robust z-score, replicate 3: -0.204

SLC18A1
- robust z-score, replicate 1: -0.861
- robust z-score, replicate 2: -0.676
- robust z-score, replicate 3: -0.75

NRSN2
- robust z-score, replicate 1: 0.386
- robust z-score, replicate 2: -0.235
- robust z-score, replicate 3: -0.126

NAA38
- robust z-score, replicate 1: 1.1
- robust z-score, replicate 2: 1.4
- robust z-score, replicate 3: 1.54

LOC401056 (retired record)
- robust z-score, replicate 1: -0.0728
- robust z-score, replicate 2: 0.122
- robust z-score, replicate 3: -0.0749
